# In publication doi:10.1101/2021.09.28.462098:
# Chains of the proteins cited; added tags and fusions are not shown. Lines headed by an entry give the natural chain unless they say otherwise; changes in a name come on top.
# UniProt Q07335: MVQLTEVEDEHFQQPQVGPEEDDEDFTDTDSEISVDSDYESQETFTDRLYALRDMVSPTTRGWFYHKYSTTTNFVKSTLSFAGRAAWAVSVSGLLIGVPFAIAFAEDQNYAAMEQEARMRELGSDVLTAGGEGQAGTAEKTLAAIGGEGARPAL
# UniProt V5ILY4: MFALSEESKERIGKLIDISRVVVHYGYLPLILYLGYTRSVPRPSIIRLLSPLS
# These are yes or no findings as the source states them, for the method shown. Binding seen in cells or lysates may run through a third protein. Binding calls can cover weak binding; strength is not graded here.
# Biological target: Tom22 with a hexahistidine tag at the C-terminus (Neurospora crassa) (UniProt Q07335)
# Assay: co-purification
substance,measurement,value
Tom7 (from UniProt V5ILY4),binding,binds
